Laboratory results as given in US20090180995A1, “NOVEL ANTICOAGULANT POLYPEPTIDES AND COMPLEX” (National University of Singapore, priority 2005, published 2009).

System: hemextin A-hemextin B interaction
Assay: ITC, hemextin A-hemextin B interaction
Format: binding, Hemachatus haemachatus

B1: hemextin AB complex: synergistic 1:1 tetrameric complex of hemextin A and hemextin B, reconstituted from equimolar proteins (protein)
chain 1: LKCKNKLVPFLSKTCPEGKNLCYKMTMLKMPKIPIKRGCTDACPKSSLLVKVVCCNKDKCN
chain 2: LKCKNKVVPFLKCKNKVVPFLCYKMTLKKVPKIPIKRGCTDACPKSSLLVNVMCCKTDKCN
**Q.** With B1 as the molecule, how does the “ΔH, hemextin AB complex formation” value (ITC) read?
**A.** -11.68 kcal/M

**Q.** And the “heat capacity change ΔCp” value (slope of ΔH versus temperature, 10-45° C.)?
**A.** −177 cal mol^−1 deg^−1
